Experimental data published in publication PMC9843532.
No constants are given. Whether binding was seen depends on the method and setting. Binding seen in cells or lysates may run through a third protein. Some binding calls cover weakened binding; strength is not graded here.

The chains behind the UniProt entries cited, without tags or fusion partners.
UniProt Q9UQQ2: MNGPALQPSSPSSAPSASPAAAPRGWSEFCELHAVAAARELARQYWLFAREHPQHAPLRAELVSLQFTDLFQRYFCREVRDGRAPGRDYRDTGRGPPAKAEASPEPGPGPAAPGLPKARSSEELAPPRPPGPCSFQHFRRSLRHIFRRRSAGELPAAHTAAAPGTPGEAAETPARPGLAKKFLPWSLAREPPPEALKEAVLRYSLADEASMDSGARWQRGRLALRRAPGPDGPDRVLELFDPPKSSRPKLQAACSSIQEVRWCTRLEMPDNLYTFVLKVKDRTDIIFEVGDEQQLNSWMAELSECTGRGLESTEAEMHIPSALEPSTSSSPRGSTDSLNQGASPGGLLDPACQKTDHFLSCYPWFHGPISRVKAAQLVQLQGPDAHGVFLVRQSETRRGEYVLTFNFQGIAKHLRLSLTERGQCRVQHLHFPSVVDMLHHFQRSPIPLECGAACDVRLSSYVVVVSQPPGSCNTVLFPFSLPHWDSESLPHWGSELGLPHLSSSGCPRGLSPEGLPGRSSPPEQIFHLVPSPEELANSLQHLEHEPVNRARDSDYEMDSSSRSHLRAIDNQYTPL
UniProt P63104: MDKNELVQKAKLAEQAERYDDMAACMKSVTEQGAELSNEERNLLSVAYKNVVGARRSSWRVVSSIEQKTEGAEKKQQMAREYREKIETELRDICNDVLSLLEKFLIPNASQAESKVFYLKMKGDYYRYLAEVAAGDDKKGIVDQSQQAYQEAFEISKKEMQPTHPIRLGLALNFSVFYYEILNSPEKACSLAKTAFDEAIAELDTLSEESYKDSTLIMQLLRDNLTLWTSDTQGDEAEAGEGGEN

Tests used:
[1] = target: LNK (human (endogenous in primary erythroblasts)) (UniProt Q9UQQ2); experiment: co-IP; endogenous proteins in lysates of human primary erythroblasts after DMSO or 0.5 μM ACY-1215 exposure; IP buffer with 1% NP40, 150 mM NaCl, 5 mM EDTA, Tris HCl pH 8; antibody against 14-3-3ζ or LNK (2 μg) overnight at 4°C, μMACS Protein G Microbeads; partner detected by immunoblot
[2] = target: 14‐3‐3ζ (human (endogenous in primary erythroblasts)) (UniProt P63104); experiment: as above

| binding [1] | binding [2] | Substance |
| --- | --- | --- |
| binds |  | 14‐3‐3ζ (from UniProt P63104 1-245) |
|  | binds | LNK (from UniProt Q9UQQ2 1-575) |
